# Results taken from PubChem BioAssay AID1347423 (Functional Genomics Laboratory (NCATS/FGL), 2020).
# Among all 52,000 sequences or so, about 210 (0.4%) were called active.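 The calls were made as follows: active = gene whose silencing raises cell survival under the drug, median off-target-corrected z-score across its silencing RNAs 2 or more; inactive = the rest.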 Some of the results follow.
# Assay: Resistance to Poly (ADP-Ribose) Polymerase inhibitor: Gene Identification via Genome-wide siRNA Screen
# Conditions: mouse BRCA2 R2336H ES cells, olaparib, CellTiter-Glo viability; active compounds read high
# Summary of the method: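 Mouse BRCA2 R2336H ES cells were reverse-transfected with siRNA (20 nM final), treated at 48 h with 500 nM olaparib, and read by CellTiter-Glo after 72 h. Scores: MAD-based z per siRNA, median per gene, seed off-target correction.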
row,Sequence,z-score
1,GGCUUGGUUUUAAAUGAUGTT against Il17rd,inactive: -1.92
2,GGAAGCGUAAAUAAGUGUCTT against Emp2,inactive: 0.844
3,CCAUACGAGUGACCAGUUGTT against Ctbp1,inactive: -0.567
4,GGAGUCCUUGGGAUAAUAATT against D930016N04Rik,inactive: -1.02
5,GGGAAGUGACAUAUUCUCGTT against Brf2,inactive: -0.676
6,CCCAUUUCCGGAGCUCACUTT against Grb10,inactive: 1.29
7,GGGAUUACCACCCAUCCUATT against Atp5b,inactive: 2.37
8,CGGCUGAAGACUGAAAACGTT against Hnrpl,inactive: 2.53
9,GCAGAUAUGACGAUUAAAUTT against Pafah1b1,inactive: -0.63
10,CCAGAUACUUCUCAUGGCGTT against B230317C12Rik,inactive: -0.357
11,CCUUCAGACCUCCUUAUUATT against Hgd,inactive: -1.3
12,GGUUACGUGUUUGUAUCUATT against Hig1,inactive: 0.593
13,GGUUCUAGGGAAAAAAACATT against Tnrc4,inactive: 0.887
14,GGUCUUGAAACUCUGAAAGTT against Sult1a1,inactive: 1.58
15,GGGCUAUCGGUUGACAAAUTT against Riok2,inactive: -0.301
16,GGUUCUCCAUUCUGUUUACTT against Slc35d1,inactive: 0.505
17,GGCCUCCAGUGGAUAAUAGTT against BC013667,inactive: -1.07
18,GGAACAUUUUGGAAAUGACTT against Fbxo25,inactive: 0.308
19,GGAGAGGAAAAUUGUAUUUTT against Alox12,inactive: 0.518
20,GGCUAAGGGUGGGAAAGAATT against 1700007H16Rik,inactive: -1.69
21,GGAGGAGAUCAAAAAAAGATT against Cfl2,inactive: -0.709
22,GCAGAUUAACAUCUUCUUUTT against Dncic2,inactive: -0.823
23,GGUAGUAUCCCAGUUCCAUTT against 2810432L12Rik,inactive: -0.445
24,GGAUAUUUGUCUUCUGGGUTT against AY026312,inactive: 1.01
25,GGCUUGUCCUGGCAUGAUGTT against Ptprn,inactive: -1.15
26,GGAGAAAAUGGACAGUCUATT against Twist1,inactive: -0.576

row,Sequence,z-score
1,GGAUCUUGUUGGUUAUCGATT against Syn3,inactive: 0.359
2,CGGCUUAAAUUGACAUUUCTT against Glul,inactive: -0.549
3,GCCUCUACUGGUUAUUUAATT against 4930477M19,inactive: 0.571
4,GCAUGAAGGACUUUCGAAGTT against 5730437N04Rik,inactive: -0.439
5,GGAACAAGGAAGUUACAGGTT against Olfr30,inactive: 0.637
6,GGCAAAAAUACUUUGUCGGTT against Alox5ap,inactive: 0.576
7,GGACAUGAAAGUUGACCUGTT against Mrps31,inactive: 0.0913
8,CGUGAGGUUAUGAUGUAUUTT against LOC432723,inactive: -0.681
9,GGAUAUUAUUGUUCCCACUTT against Olfr907,inactive: 0.259
10,GCCCAGAUACAACCAGACUTT against AW046014,inactive: -0.783
11,GCUAAGGACUUUUGUUGACTT against G3bp,inactive: -0.398
12,CCAACAAUCAUGGUUAAACTT against 4732429D16Rik,inactive: 0.926
13,GGUGGAAUGAAAGAACAAGTT against Klhl13,inactive: -1.39
14,GGCUGAAGACACUGAACACTT against Olfr643,inactive: -3.35
15,GGAUGGAGACACCAAUUUUTT against Rdh9,inactive: 0.487
16,GGCUUGACUGCUAUUUUAGTT against Csna,inactive: 2.01
17,UGAACAAACUUUCAGCCUCTT against Ugt2b5,inactive: -1.6
18,GGAGAAUUUGGAAAGUGAGTT against Rnf150,inactive: -1.33
19,GGAAUGGAUCCUGAUGAUATT against 5730406I15Rik,inactive: -1.6
20,GCACUCAAUAUAGCUUUAATT against Olfr1489,inactive: -1.77
21,GCGAUUUGUCAAAGAGCUGTT against Pcyox1,inactive: -0.447
22,GGAGCAACUGUUUUAAAAGTT against Leprel1,inactive: 0.118
23,GGUACUACAAAAGAGAGCUTT against Ubr1,inactive: 0.157
24,GCUUAAACCGCCUAUGUUCTT against 1810004F21Rik,inactive: 0.928
25,GGAUCAUCUGCAUAAUAGATT against 4930517K11Rik,inactive: -0.0227
26,GGAUUUAACCCUGAGAUACTT against Grpel2,inactive: 0.0521

row,Sequence,z-score
1,GGGUGAUGAUGGAUUCUGUTT against Eef1g,inactive: 1.49
2,GGAAAUUUGGAAAUUGCCUTT against Hnt,inactive: 0.652
3,GGUUUUUUUGAGUUUCAGGTT against Lars,inactive: 0.544
4,GGAACAGCAGCCUGAAUGATT against B4galt5,inactive: 0.809
5,GGAAGAACUAAAGAGUCUUTT against Elavl2,inactive: -0.556
6,CCCUGACCUUGUGGUAGAATT against 0610012D14Rik,inactive: -1.13
7,GGUGACAACCAUGAUCUCCTT against C1qtnf2,inactive: 0.721
8,GGUUUGAAAUCAGCAUGAUTT against A530065I17Rik,inactive: -0.647
9,GGAUCAUAUAUGAAGCACATT against Mybl1,inactive: 1.02
10,GGACAUUAGCCAACACAUCTT against 1700010M22Rik,inactive: 0.249
11,GCGACAAGGCAAAGCUAGATT against 1110018J12Rik,inactive: -1.73
12,GGAUGGAGUUCACAUUUUCTT against 2700082D03Rik,inactive: -3.05
13,CGGGAAGUAGUGCAACACCTT against Taldo1,inactive: 0.923
14,GGGAGUGACUCAGAUCGAUTT against Atp6v1c1,inactive: -0.324
15,GGAGCUGAUAAAUCUGAACTT against Dhrs7,inactive: -0.529
16,GGAAGUCGAGUUGAAAUCGTT against Hrsp12,inactive: 0.674
17,CAGGGCUCACAGAGUCUCCTT against Olfr190,inactive: -0.116
18,GCUGUAUGGCUAAGCAGUGTT against Olfr113,inactive: 5.23
19,CCCAUGUUCGAUGGGAAAGTT against Adprt1,active: 0.293
20,GGCAGAAACCAAGUUGGCUTT against Diablo,inactive: 1.05
21,CCCAUAUUUGUGGUAAACATT against Gm78,inactive: 1.15
22,GGACCUGGUUCAGGUAUCATT against Col6a3,inactive: -2.4
23,GGUACCGGAGUCUGAAACATT against Drp2,inactive: -2.78
24,GGGCAAGAUUAAGACUUAUTT against Armcx1,inactive: -1.63
25,GGCAACAUGACAAUUGUGGTT against Olfr1215,inactive: 1.6
26,GGUUCGUUUUCAACUGGCGTT against 2010007H12Rik,inactive: -0.413

row,Sequence,z-score
1,GGUCACAGAUGAAAUUAUGTT against Ltbr,inactive: 0.0691
2,GCCUUGGCGACAAAGCUAATT against 4930506M07Rik,inactive: -0.0619
3,CCUCUGCUUUAUGAUCAACTT against Gm867,inactive: 0.531
4,CCAUCAAUCCUAAUGCUUATT against 4933417A14Rik,inactive: 0.582
5,GCUGGAGAUGAUUGUCUGATT against Psmd8,inactive: -3.5
6,GGAAUACACUUACCUAGGUTT against Tpd52l2,inactive: 1.03
7,CCACGUUUUGACUGACUUCTT against Thnsl1,inactive: -0.384
8,GGUAAAAGGUGAAGAAAAATT against Nap1l3,inactive: 0.773
9,GCGGCAGAUCUUCGAUUUCTT against 2610200G18Rik,inactive: -0.616
10,GGACUCAGAGCUCUUUGACTT against Ipo13,inactive: 0.424
11,CCAUGAGGAUGGAAACUACTT against Ranbp3,inactive: 0.505
12,GCUUGUUUAGUAUACAGCCTT against 4933412H03Rik,inactive: 1.15
13,GGCAAAGACAUUGAUCCACTT against AI315119,inactive: -0.126
14,GGAUACACUGUUUGAAUGUTT against Cks1,inactive: -0.594
15,GGAACUGCCUACCUAGAGATT against Mrps17,inactive: -1.67
16,GCUAAUGGUAUAAAUGGAUTT against A130038L21Rik,inactive: 0.801
17,GGGUAGUUAUGACUAAAUUTT against 9430077C05Rik,inactive: -0.398
18,CCUUUAUCAUUGGAUAACUTT against Dusp11,inactive: 0.848
19,GGCAGUUCUCCAGUGCUUUTT against Mtss1,inactive: -0.0935
20,GGACAGUUUGAUGAUGCCGTT against 2410022L05Rik,inactive: -0.752
21,GGAUAGGUUGAACAGGUUGTT against BC028528,inactive: 0.0483
22,GGUUUUAGUAAACUUCCCATT against 2810485I05Rik,inactive: 0.715
23,GCUAUGUGAGUUCCACAAATT against Rapsn,inactive: 2.01
24,CCUGUUCUAACUGUAUCUUTT against Pcdhb9,inactive: -0.438
25,GGUUUAAGAAGUCAACAUUTT against Slc36a4,inactive: 1.11

# Copied from the list:
# z-score with GGAAUACACUUACCUAGGUTT against Tpd52l2 is entered as inactive: 1.03
# z-score with CCAUGAGGAUGGAAACUACTT against Ranbp3 is entered as inactive: 0.505
# z-score with GGUUUAAGAAGUCAACAUUTT against Slc36a4 is entered as inactive: 1.11
# z-score with GGUUUUAGUAAACUUCCCATT against 2810485I05Rik is entered as inactive: 0.715
# z-score with GCUUGUUUAGUAUACAGCCTT against 4933412H03Rik is entered as inactive: 1.15
